PubChem BioAssay AID1259308 | NCATS, 2017

Screen: 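Candidate targets for better recombinant protein yield in mammalian cells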 (primary screen)
System: human HEK293 embryonic kidney cells stably expressing firefly luciferase (HEK-CMV-Luc2-Hygro)
Reagents: single siRNA against human genes, 0.8 pmol siRNA per well
Time to read-out: 72 h
Read-out: 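Luciferase light (ONE-Glo) measured on one replicate plate set and viability (CellTiter-Glo) on the other, scaled to a negative control siRNA, with robust z-scores and luciferase per cell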
Direction: total luciferase, z-score: higher = more reporter protein produced
Rule for the call: 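An siRNA counts as active if its total luciferase robust z-score exceeds 3; genes with two or more such siRNAs out of three were retested with fresh siRNAs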
Calls: active = raised luciferase; inactive = no rise
The whole screen tested about 59,000 reagents; below is an unselected part. Of all reagents, about 1,510 (2.6%) are marked active. 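Calls use total luciferase alone and ignore viability, so some active siRNAs may act by altering cell number.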 A number with no mark means an inactive call. Reagents against one gene are numbered here. Further read-outs or replicates are left out here.

no.	Gene	siRNA no.	total luciferase, z-score
1	KLHL11	1	0.837
2	KLHL11	2	-0.496
3	KLHL11	3	1.33
4	SNTG1	1	-0.308
5	SNTG1	2	1.83
6	SNTG1	3	-0.679
7	TMEM198	1	1.36
8	TMEM198	2	-1.5
9	TMEM198	3	-0.0763

2 neighbouring records already listed:
no.	Gene	siRNA no.	total luciferase, z-score
3	KLHL11	3	1.33
4	SNTG1	1	-0.308

Additional entries follow:
no.	Gene	siRNA no.	total luciferase, z-score
10	H3C7	1	2.87
11	H3C7	2	1.24
12	H3C7	3	-1.07
13	MCPH1	1	-0.679
14	MCPH1	2	-0.365
15	MCPH1	3	-1.27
16	SENP3	1	1.59
17	SENP3	2	-0.388
18	SENP3	3	-0.177
19	TNRC18P2	1	-0.716
20	TNRC18P2	2	-1.48
21	TNRC18P2	3	0.71
22	PTF1A	1	-0.675
23	PTF1A	2	0.344
24	PTF1A	3	0.398
